Results are given in words; binding and its absence hold for the method and conditions named. For some assays here: Binding can be weak; no strength is given.
How the values were obtained:
[1] = biological target: laminin alpha 4 LG domain recombinant protein LAMA4_(826–1816) (human) (UniProt Q16363); test: ELISA; plates coated with 1 μg/mL recombinant laminin LG domain; 1 μg/mL GF added; bound GF detected with an antibody for each GF; BSA-coated wells as control; both purified
[2] = biological target: T1, laminin peptide LAMA5_(3417–3436) (human) (UniProt O15230); test: ELISA; plates coated with laminin peptide (10 µg/mL by the legend, 1 μg/mL by the methods); 1 μg/mL GF added; bound GF detected with an antibody for each GF; BSA-coated wells as control; both purified
T1 sequence (peptide): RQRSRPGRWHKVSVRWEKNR

Chains of the proteins cited; added tags and fusions are not shown. Lines headed by an entry give the natural chain unless they say otherwise; changes in a name come on top. Residues count along the entry.
UniProt Q16363: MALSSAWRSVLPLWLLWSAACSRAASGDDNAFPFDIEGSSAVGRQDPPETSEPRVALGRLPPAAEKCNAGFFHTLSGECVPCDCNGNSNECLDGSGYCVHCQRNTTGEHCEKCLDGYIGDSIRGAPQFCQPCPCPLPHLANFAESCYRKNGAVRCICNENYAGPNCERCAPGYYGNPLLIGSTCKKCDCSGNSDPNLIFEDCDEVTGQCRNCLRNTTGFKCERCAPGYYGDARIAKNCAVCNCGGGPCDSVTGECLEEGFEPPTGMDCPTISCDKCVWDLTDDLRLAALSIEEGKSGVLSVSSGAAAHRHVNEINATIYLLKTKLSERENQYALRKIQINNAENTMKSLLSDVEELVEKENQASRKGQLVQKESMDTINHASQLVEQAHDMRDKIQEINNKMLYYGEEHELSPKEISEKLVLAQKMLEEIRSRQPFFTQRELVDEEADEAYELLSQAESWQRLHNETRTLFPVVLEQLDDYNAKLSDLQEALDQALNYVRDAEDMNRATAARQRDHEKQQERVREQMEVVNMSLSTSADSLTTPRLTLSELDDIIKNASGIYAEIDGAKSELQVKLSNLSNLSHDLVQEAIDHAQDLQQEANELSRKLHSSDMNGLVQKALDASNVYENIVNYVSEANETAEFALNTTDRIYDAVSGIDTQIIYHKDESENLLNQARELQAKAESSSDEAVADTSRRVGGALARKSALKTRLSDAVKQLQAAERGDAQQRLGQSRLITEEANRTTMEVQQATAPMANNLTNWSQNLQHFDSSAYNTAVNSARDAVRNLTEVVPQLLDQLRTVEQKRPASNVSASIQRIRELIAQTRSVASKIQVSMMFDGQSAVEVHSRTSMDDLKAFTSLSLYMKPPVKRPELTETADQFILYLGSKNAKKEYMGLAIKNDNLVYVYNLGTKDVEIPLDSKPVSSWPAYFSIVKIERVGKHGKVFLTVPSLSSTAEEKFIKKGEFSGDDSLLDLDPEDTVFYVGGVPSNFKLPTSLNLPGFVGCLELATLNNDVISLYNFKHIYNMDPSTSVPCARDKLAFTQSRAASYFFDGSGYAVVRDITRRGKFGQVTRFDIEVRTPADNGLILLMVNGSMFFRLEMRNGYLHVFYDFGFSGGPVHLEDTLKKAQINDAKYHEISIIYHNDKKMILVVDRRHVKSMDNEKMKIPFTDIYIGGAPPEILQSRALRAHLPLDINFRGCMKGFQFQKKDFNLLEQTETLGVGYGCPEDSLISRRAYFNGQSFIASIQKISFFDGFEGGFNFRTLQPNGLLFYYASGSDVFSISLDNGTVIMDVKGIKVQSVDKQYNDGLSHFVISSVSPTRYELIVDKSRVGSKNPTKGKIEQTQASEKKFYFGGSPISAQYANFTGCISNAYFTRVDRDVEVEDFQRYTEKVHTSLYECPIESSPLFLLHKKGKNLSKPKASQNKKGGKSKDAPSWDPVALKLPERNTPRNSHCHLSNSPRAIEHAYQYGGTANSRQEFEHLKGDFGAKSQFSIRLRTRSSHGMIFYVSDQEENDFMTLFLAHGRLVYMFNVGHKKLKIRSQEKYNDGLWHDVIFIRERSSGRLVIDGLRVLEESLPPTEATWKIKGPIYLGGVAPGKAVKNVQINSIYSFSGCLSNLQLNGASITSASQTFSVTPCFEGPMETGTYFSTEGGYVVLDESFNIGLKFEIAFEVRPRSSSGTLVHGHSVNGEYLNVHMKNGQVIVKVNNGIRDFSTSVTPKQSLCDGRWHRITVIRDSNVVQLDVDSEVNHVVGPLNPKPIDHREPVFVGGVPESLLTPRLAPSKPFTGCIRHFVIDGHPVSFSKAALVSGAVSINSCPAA
UniProt P01127, residues 82-190: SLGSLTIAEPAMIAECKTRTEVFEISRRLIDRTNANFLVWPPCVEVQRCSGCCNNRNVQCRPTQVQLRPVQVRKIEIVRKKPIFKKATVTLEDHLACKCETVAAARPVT
UniProt P09038, residues 143-288: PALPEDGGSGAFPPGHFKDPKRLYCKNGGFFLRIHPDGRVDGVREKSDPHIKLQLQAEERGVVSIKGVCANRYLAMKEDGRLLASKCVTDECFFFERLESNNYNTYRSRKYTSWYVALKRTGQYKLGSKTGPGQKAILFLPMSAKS

[3] = biological target: T2, laminin peptide LAMA3_(3031–3043) (human) (UniProt Q16787); test: as above
T2 sequence (peptide): KNSFMALYLSKGR

[4] = biological target: T3, laminin peptide LAMA5_(3300–3330) (human) (UniProt O15230); test: as above
T3 sequence (peptide): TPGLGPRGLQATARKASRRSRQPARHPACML

[5] = biological target: T4, laminin peptide LAMA5_(3312–3325) (human) (UniProt O15230); test: as above
T4 sequence (peptide): ARKASRRSRQPARH

[6] = biological target: T5, laminin peptide LAMA3_(3043–3067) (human) (UniProt Q16787); test: as above
T5 sequence (peptide): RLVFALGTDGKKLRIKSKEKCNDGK

[7] = biological target: T6, laminin peptide LAMA3_(2932–2951) (human) (UniProt Q16787); test: as above
T6 sequence (peptide): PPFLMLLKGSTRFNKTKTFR

[8] = biological target: T7, laminin peptide LAMA5_(3539–3550) (human) (UniProt O15230); test: as above
T7 sequence (peptide): TLPDVGLELEVR

[9] = biological target: T8, laminin alpha 5 LG domain recombinant protein LAMA5_(3026–3482) (human) (UniProt O15230); test: ELISA; plates coated with 1 μg/mL recombinant laminin LG domain; 1 μg/mL GF added; bound GF detected with an antibody for each GF; BSA-coated wells as control; both purified
T8 sequence: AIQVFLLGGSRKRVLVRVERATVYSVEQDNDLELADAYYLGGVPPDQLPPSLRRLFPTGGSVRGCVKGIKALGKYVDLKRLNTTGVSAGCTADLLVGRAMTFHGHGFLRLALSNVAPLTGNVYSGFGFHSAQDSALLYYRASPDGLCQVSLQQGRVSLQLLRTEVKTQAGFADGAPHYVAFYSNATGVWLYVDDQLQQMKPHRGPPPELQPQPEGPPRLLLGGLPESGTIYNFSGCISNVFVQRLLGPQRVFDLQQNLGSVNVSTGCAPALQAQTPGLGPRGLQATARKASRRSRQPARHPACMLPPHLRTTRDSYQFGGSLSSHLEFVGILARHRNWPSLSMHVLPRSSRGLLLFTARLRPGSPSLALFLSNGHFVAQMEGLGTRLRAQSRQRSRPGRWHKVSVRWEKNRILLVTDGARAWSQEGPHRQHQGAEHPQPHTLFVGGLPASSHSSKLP

[10] = biological target: T9, recombinant laminin LAMA3_(2928–3150) protein (human) (UniProt Q16787); test: as above
T9 sequence: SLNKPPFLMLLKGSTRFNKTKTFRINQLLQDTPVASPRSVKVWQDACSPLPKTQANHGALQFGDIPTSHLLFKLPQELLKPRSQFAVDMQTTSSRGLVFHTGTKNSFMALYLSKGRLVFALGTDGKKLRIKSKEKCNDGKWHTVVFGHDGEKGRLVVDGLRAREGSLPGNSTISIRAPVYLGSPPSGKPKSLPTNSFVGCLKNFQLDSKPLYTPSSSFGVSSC

Row | Substance | binding [1] | binding [2] | binding [3] | binding [4] | binding [5] | binding [6] | binding [7] | binding [8] | binding [9] | binding [10]
1 | platelet-derived growth factor PDGF-BB (from UniProt P01127 82-190) (ligand) | binds | – | – | – | – | – | – | – | – | –
2 | FGF-2 (from UniProt P09038 143-288) (ligand) | binds | – | – | – | – | – | – | – | – | –
3 | vascular endothelial cell growth factor VEGF-A165 (human) (ligand) | – | binds | binds | binds | no binding (tested: 1 μg/mL) | binds | binds | binds | binds | binds
4 | VEGF-A121 (human) (ligand) | – | no binding (tested: 1 μg/mL) | no binding (tested: 1 μg/mL) | no binding (tested: 1 μg/mL) | no binding (tested: 1 μg/mL) | no binding (tested: 1 μg/mL) | no binding (tested: 1 μg/mL) | no binding (tested: 1 μg/mL) | no binding (tested: 1 μg/mL) | no binding (tested: 1 μg/mL)
